At least one structure is not confirmed: it was looked up by name or label, or the drawing left a doubt.
System: MOG-induced experimental allergic encephalomyelitis (EAE) murine model
Assay: MOG-induced experimental allergic encephalomyelitis (EAE) murine model, clinical score 0-15
Assay type: in vivo, Mouse/C57BL/6J
Source text: FIG. 1: Combination of MabionCD20DP and teriflunomide. MabionCD20DP and teriflunomide have been administered to an experimental allergic encephalomyelitis (EAE) mouse model. The MOG (myelin oligodendrocyte glycoprotein)-induced EAE murine model consists of a sensitization period, induced by the single SC injection of MOG emulsified in CFA (complete Freund's adjuvant) on Day 0, followed by IP supplemental immunostimulation with PT carried out once at the time of EAE induction and once again 48 hours later.
(§1) FIG. 2: Combination of MabionCD20DP and dimethyl fumarate. MabionCD20DP and dimethyl fumarate have been administered to an experimental allergic encephalomyelitis (EAE) mouse model. The MOG-induced EAE murine model consists of a sensitization period, induced by the single SC injection of MOG emulsified in CFA on Day 0, followed by IP supplemental immnunostimulation with PT carried out once at the time of EAE induction and once again 48 hours later.
as §1, with “3:” for “2:”, “fingolimod.” for “dimethyl fumarate.”, “fingolimod” for “dimethyl fumarate”, “encephalomy elitis” for “encephalomyelitis”, “immunostimulation” for “immnunostimulation”
Experimental allergic encephalomyelitis (EAE) is a central nervous system (CNS) autoimmune demyelinating disease that mimics many of the clinical and pathologic features of multiple sclerosis (MS). […]
Throughout the 36-day study, general clinical examinations were performed and recorded if any unexpected abnormalities are observed.
Body weight loss can be the first sign of disease initiation, while a sudden marked weight gain tends to accompany remission of EAE symptoms. Therefore, determination of individual body weights of animals was made shortly before EAE induction on Study Day 0 and was monitored on a daily basis throughout the 35-day observation period.
All animals were examined for signs of any neurological responses and symptoms prior to EAE induction (Study Day 0) and thereafter, examined on a daily basis throughout the entire 35-day observation period. EAE reactions are scored and recorded according to a 0-15 scale. The clinical score is determined by summing the score from each section (Weaver at al, 2005): […]

SMILES	therapeutic effect (EAE), FIG. 3 (fingolimod in subtherapeutic dose alone, 0.034 mg/kg PO once daily, Days 0-35 (Group 8))	disease parameters (EAE), FIG. 3 (fingolimod in therapeutic dose, 0.1 mg/kg PO once daily, Days 0-35 (Group 9))	therapeutic effect (EAE), FIG. 1 (teriflunomide in subtherapeutic dose alone, 0.957 mg/kg PO once daily, Days 0-35 (Group 5))	disease parameters (EAE), FIG. 1 (teriflunomide in therapeutic dose, 2.87 mg/kg PO once daily, Days 0-35 (Group 6))
CCCCCCCCc1ccc(CCC(N)(CO)CO)cc1 [fingolimod]	only limited therapeutic effect	reduction of the disease parameters		
C/C(O)=C(\C#N)C(=O)Nc1ccc(C(F)(F)F)cc1 [teriflunomide]			no therapeutic effect	reduction of the disease parameters
